Experimental data taken from PMC6076257.
No constants are given. Whether binding was seen depends on the method and setting. Binding seen in cells or lysates may run through a third protein. Here binding means that the protein was enriched with, or labelled near, the bait; the list need not be complete.

The chains behind the UniProt entries cited, without tags or fusion partners.
UniProt P78344: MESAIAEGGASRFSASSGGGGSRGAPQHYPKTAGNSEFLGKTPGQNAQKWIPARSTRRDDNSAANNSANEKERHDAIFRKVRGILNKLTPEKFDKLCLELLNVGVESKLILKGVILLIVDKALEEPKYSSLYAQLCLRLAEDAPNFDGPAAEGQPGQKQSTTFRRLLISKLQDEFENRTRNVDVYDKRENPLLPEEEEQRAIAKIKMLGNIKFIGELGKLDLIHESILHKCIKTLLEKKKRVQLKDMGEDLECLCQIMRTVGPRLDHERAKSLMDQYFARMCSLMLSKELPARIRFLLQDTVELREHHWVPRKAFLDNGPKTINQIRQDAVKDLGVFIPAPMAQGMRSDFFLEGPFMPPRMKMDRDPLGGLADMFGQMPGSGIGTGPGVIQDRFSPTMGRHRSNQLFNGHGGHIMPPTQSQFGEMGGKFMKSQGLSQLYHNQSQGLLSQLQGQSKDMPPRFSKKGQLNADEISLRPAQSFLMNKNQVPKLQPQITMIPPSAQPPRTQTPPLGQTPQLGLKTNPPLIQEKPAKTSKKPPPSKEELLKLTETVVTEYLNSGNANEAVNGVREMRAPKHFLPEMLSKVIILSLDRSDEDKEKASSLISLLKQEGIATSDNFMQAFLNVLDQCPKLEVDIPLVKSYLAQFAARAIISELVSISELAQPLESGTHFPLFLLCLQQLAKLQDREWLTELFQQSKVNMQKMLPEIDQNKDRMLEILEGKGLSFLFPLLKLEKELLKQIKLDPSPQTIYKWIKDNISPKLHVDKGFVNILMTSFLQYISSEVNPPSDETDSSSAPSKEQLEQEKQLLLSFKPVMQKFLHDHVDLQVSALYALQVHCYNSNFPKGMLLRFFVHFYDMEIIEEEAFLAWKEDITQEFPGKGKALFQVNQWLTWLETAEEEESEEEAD
UniProt Q04637: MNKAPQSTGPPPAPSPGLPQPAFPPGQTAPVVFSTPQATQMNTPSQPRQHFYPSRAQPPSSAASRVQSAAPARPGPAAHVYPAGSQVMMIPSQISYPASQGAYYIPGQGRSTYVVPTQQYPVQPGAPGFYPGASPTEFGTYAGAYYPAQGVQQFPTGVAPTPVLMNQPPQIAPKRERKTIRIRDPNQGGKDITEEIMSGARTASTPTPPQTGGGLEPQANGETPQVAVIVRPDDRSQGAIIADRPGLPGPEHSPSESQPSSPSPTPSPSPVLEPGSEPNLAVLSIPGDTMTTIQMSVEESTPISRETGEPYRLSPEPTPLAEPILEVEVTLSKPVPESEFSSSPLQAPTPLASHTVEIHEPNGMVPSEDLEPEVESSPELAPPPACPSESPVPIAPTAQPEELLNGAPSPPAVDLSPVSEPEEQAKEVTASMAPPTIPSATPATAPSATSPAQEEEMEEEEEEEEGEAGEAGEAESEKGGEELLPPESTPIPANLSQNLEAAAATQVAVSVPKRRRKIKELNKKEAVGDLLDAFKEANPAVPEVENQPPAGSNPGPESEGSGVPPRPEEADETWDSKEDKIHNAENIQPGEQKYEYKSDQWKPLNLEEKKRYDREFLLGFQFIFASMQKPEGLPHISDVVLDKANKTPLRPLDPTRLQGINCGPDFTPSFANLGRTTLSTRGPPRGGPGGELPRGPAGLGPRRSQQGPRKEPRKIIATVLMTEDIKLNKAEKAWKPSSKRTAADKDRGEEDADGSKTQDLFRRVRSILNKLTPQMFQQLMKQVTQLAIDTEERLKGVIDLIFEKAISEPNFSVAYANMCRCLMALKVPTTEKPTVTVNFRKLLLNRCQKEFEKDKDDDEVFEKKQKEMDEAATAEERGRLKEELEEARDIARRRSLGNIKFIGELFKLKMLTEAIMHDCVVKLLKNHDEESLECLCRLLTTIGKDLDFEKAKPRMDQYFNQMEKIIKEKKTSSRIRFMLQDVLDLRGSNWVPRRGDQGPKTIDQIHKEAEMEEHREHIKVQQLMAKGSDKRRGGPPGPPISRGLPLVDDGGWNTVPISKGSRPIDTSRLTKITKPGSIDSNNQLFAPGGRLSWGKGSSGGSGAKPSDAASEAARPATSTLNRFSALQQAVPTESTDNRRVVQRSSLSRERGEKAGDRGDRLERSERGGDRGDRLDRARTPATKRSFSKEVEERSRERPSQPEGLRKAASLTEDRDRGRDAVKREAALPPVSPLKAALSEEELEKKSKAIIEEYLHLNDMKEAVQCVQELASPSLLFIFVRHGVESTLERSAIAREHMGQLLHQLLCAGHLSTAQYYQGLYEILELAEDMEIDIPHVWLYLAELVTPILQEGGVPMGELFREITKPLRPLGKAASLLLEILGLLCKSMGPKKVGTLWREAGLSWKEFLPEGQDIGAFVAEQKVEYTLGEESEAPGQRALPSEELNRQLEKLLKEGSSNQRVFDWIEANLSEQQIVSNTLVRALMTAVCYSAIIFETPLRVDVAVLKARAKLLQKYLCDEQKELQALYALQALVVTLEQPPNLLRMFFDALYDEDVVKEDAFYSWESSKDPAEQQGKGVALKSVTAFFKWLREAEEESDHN
UniProt O43432: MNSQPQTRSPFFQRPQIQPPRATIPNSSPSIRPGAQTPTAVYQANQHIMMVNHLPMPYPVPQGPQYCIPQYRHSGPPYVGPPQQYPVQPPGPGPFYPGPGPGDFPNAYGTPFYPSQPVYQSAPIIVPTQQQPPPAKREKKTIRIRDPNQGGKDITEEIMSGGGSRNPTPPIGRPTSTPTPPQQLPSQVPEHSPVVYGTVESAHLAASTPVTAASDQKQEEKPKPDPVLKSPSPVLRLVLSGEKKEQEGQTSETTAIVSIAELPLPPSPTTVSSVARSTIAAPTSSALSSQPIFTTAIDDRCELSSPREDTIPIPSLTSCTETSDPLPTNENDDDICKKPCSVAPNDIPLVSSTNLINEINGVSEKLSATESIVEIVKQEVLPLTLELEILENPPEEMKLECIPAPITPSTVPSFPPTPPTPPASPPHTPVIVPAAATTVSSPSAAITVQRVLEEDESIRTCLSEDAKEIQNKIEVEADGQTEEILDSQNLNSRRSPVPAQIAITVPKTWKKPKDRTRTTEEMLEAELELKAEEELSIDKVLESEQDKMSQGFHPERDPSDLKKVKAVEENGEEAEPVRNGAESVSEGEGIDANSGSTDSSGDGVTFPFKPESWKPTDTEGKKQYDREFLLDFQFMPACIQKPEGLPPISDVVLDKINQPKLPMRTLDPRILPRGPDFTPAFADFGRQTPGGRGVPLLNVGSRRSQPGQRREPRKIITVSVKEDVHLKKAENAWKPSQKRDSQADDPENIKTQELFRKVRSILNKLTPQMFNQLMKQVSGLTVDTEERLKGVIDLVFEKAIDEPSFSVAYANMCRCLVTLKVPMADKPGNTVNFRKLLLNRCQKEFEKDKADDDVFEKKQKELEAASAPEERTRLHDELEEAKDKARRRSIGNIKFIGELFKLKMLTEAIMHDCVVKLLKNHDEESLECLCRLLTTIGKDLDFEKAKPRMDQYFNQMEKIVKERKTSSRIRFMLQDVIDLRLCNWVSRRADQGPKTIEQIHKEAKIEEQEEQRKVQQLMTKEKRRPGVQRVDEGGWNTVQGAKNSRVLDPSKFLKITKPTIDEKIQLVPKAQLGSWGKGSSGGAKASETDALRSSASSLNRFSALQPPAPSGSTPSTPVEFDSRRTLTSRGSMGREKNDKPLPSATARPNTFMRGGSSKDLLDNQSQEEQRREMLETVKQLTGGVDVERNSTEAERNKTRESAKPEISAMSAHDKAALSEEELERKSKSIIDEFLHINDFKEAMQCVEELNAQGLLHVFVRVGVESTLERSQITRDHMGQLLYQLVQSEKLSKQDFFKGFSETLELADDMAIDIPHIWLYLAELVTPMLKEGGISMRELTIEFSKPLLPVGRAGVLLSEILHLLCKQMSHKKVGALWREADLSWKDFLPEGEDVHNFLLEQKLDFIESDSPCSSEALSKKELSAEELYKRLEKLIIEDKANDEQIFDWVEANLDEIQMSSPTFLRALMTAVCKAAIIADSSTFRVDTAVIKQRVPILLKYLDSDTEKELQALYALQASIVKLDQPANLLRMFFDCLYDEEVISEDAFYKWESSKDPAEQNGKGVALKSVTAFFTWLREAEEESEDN
UniProt O15371: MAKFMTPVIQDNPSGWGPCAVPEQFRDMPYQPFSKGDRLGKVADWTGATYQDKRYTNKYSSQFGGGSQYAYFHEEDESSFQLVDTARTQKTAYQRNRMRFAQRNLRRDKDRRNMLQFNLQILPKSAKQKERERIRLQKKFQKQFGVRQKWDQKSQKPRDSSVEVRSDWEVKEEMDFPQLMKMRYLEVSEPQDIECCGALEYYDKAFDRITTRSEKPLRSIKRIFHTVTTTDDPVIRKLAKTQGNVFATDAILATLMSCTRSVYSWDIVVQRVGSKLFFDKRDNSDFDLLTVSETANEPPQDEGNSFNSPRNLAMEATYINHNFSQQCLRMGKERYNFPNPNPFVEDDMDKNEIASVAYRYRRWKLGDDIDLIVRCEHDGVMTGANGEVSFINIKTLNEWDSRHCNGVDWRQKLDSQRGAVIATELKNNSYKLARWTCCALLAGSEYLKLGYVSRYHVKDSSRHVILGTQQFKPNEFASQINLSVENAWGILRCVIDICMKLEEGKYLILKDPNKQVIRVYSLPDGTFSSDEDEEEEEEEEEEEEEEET
UniProt P51114: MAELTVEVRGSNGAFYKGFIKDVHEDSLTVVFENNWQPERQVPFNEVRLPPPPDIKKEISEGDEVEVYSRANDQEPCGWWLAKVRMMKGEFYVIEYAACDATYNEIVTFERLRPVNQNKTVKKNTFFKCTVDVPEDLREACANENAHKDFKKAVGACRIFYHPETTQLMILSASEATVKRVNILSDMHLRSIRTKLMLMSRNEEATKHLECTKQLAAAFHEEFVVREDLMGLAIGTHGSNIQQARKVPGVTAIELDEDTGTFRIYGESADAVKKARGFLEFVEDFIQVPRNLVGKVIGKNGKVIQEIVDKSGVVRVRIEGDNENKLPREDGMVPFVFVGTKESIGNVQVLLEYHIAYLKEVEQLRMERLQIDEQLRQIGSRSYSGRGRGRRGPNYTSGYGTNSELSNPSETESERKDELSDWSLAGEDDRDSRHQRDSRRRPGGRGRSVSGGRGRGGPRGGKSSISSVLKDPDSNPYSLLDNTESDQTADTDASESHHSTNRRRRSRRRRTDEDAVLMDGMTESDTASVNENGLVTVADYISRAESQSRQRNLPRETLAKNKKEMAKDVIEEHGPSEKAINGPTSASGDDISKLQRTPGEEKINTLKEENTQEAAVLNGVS
UniProt P60842: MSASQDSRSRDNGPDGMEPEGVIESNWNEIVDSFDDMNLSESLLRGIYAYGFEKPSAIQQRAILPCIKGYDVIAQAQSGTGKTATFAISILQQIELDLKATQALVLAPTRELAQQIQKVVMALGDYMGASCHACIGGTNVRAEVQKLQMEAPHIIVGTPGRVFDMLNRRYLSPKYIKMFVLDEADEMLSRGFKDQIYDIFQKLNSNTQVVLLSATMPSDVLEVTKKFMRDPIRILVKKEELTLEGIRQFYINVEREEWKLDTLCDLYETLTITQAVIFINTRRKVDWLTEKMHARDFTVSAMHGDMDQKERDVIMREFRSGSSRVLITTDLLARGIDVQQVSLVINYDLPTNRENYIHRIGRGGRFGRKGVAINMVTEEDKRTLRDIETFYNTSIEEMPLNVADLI
UniProt P51116: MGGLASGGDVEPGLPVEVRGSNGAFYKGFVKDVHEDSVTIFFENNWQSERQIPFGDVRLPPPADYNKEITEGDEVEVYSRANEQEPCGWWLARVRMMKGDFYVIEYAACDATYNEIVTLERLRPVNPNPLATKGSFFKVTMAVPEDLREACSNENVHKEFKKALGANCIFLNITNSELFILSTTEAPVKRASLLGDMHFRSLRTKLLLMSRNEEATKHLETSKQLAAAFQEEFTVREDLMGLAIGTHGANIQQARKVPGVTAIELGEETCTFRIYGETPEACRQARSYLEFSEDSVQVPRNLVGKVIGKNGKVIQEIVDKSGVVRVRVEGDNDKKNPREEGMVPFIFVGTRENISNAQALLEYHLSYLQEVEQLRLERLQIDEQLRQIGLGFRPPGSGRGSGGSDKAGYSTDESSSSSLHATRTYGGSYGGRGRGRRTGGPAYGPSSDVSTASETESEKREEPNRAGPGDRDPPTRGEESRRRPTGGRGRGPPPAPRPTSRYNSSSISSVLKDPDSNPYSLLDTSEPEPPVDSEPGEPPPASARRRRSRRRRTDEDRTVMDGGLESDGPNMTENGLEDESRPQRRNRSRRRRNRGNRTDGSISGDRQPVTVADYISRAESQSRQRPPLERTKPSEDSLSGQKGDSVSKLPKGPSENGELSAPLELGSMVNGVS

How the values were obtained:
Assay in all cases: affinity purification with mass spectrometry; HA-tagged bait transiently expressed in MDA-MB-231; lysis in 50 mM TrisHCl pH 7.5, 150 mM NaCl, 0.5% NP-40, with Benzonase and RNase A; eluted with HA-peptide; LC-MS, PSM ratios over empty-vector control and SAINT (n = 3)
[1] = biological target: HA-DAP5 (UniProt P78344)
[2] = biological target: HA-eIF4GI (UniProt Q04637)
[3] = biological target: HA-eIF4GII (UniProt O43432)

| Substance | binding [1] | binding [2] | binding [3] |
| --- | --- | --- | --- |
| eIF3d (from UniProt O15371 1-548) | binds | – | – |
| FXR1 (from UniProt P51114 1-621) | binds | binds | binds |
| eIF4A1 (from UniProt P60842 1-406) | binds | – | binds |
| FXR2 (from UniProt P51116 1-673) | binds | binds | binds |
